Measurements reported in patent US20180362632A1.
These are yes or no findings as the source states them, for the method shown. Some results given as binding are weak or reduced against the parent protein; the word gives no strength.

Amino acid sequences for entries named in this document (tags omitted). Residues count along the entry.
UniProt P04141, residues 18-144: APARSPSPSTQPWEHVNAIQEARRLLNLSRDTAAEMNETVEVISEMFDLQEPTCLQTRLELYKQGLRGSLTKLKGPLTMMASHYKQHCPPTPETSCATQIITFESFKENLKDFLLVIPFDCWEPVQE

Target: recombinant human GM-CSF protein (human) (UniProt P04141)
Assay: SPR, Biacore T200

B1: Hu50C5-18 (antibody, V domains shown)
VH: EVQLVQSGAEVKKPGSSVKVSCKASGYIFSPYSIHWVRQAPGQGLEWIGYINPSTGYIEYNQHFKDRTTLTADKSTSTAYMELRSLRSEDTAVYYCARGGDYEGYFDYWGQGTTVTVSS
VL: DIQMTQSPSSLSASVGDRVTITCRLNENIYSFLAWYQQKPGKAPKLLVYNAETLAEDVPSRFSGSGSGTDFTLTISSLQPEDFATYYCQQHYGTPYTFGGGTKVEIK
binding: binds
